From article PMC6508501, “Conserved redox‐dependent DNA binding of ROXY glutaredoxins with TGA transcription factors”

Assays:
MpTGA = experiment: EMSA; details: Redox EMSA per Gutsche & Zachgo 2016 (buffer, salt, pH, temperature not stated), 0.9 mM DTT (red) or 2 mM diamide (ox), 500 ng recombinant protein per reaction, protein translated in vitro, protein details: N-terminal 6xHis, label: 5' 6-FAM
MpROXY1 = experiment: EMSA; details: 0.9 mM DTT or 2 mM diamide; Redox EMSA per Gutsche & Zachgo 2016 (buffer, salt, pH, temperature not stated); 0.9 mM DTT (red) or 2 mM diamide (ox); 500 ng recombinant protein per reaction; recombinant protein; protein details: N-terminal MBP; label: 5' 6-FAM
MpTGA3xC = experiment: EMSA; details: Redox EMSA per Gutsche & Zachgo 2016 (buffer, salt, pH, temperature not stated), 0.9 mM DTT (red) or 2 mM diamide (ox), 500 ng recombinant protein per reaction, protein translated in vitro, protein details: N-terminal 6xHis, label: 5' 6-FAM
[1] = system: PAN (PERIANTHIA) + MpROXY1; experiment: EMSA supershift; details: Redox EMSA per Gutsche & Zachgo 2016 (buffer, salt, pH, temperature not stated); 0.9 mM DTT (red) or 2 mM diamide (ox); 500 ng recombinant protein per reaction; recombinant protein; protein details: N-terminal MBP (per Methods),N-terminal MBP; label: 5' 6-FAM
MpTGA3xC + MpROXY2 = experiment: EMSA supershift; details: 0.9 mM DTT (reducing); Redox EMSA per Gutsche & Zachgo 2016 (buffer, salt, pH, temperature not stated); 0.9 mM DTT (red) or 2 mM diamide (ox); 500 ng recombinant protein per reaction; protein translated in vitro; protein details: N-terminal 6xHis,N-terminal MBP; label: 5' 6-FAM
MpTGA + MpROXY2 = experiment: EMSA supershift; details: Redox EMSA per Gutsche & Zachgo 2016 (buffer, salt, pH, temperature not stated), 0.9 mM DTT (red) or 2 mM diamide (ox), 500 ng recombinant protein per reaction, protein translated in vitro, protein details: N-terminal 6xHis,N-terminal MBP, label: 5' 6-FAM

## AAGAATCTTTGATCAAATCATCACTCAGATATT (double strand) [ΔbZIP]
MpTGA; 0.9 mM DTT (reducing)
  binding result: no binding

## AAGAATCTTTGATCACGTCATCACTCAGATATT (double strand)
MpTGA; 0.9 mM DTT (reducing)
  binding result: binds

## CTAAATCACTATTTTACTTAAATCATAG (double strand) [Δas-1-like]
MpTGA; 0.9 mM DTT (reducing)
  binding result: no binding

## CTACGTCACTATTTTACTTACGTCATAG (double strand) [as-1-like]
MpROXY1
  binding result: no binding
MpTGA; 0.9 mM DTT (reducing)
  binding result: binds
MpTGA; 2 mM diamide (oxidizing)
  binding result: binds more weakly
MpTGA; 2 mM diamide then 20 mM DTT
  binding result: binds
MpTGA3xC; 0.9 mM DTT (reducing)
  binding result: binds
MpTGA3xC; 2 mM diamide (oxidizing)
  binding result: binds
[1]
  binding result: binds
MpTGA3xC + MpROXY2
  binding result: binds
MpTGA + MpROXY2; 0.9 mM DTT (reducing), supershift incomplete
  binding result: binds
MpTGA + MpROXY2; 2 mM diamide (oxidizing)
  binding result: no binding

The exact form of at least one protein or probe is not confirmed. For some of these results: A negative result means that nothing was seen under these conditions. For some of these results: Weaker means in comparison with the reference protein, sequence or condition of that experiment. For some of these results: At least one verdict was read from the data and is not stated in words by the source.
